Assay results from publication PMC7244035.
Results are given in words; binding and its absence hold for the method and conditions named. In cells and extracts the contact can be indirect. A yes stands for co-enrichment or nearness to the bait. Other partners may have been found.

Target: T1, kinesin family member 23 (KIF23), endogenous (human (endogenous in MGC-803)) (UniProt Q02241)
T1 sequence: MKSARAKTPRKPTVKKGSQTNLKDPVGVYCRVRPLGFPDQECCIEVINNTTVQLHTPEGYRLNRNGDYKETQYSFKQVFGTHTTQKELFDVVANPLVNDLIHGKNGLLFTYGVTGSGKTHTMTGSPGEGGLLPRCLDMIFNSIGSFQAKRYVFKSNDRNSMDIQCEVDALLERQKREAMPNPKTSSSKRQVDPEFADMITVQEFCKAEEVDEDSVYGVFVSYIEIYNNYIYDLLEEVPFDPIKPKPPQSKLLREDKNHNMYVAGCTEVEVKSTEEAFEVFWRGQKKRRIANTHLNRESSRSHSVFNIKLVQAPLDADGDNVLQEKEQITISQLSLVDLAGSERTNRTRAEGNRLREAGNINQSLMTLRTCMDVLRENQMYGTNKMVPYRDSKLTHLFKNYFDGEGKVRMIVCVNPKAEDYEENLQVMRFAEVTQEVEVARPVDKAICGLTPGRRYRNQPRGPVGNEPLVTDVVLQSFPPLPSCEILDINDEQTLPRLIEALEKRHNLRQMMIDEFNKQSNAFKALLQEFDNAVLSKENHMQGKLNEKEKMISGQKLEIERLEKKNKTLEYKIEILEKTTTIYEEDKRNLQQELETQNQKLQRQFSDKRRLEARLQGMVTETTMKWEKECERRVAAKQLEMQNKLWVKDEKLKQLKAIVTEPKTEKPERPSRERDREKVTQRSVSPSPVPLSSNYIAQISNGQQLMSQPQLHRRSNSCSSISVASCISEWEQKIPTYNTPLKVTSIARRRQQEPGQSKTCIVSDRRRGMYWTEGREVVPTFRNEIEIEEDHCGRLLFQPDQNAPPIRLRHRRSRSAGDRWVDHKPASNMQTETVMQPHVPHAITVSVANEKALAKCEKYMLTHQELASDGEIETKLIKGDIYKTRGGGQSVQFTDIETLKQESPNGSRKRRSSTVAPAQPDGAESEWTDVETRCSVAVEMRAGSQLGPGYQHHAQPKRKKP
Experiment: affinity purification with mass spectrometry; IP of KIF23 from MGC-803 cells, SDS-PAGE with Coomassie blue staining, Nano-LC MS/MS

binding: binds
B1: APC membrane recruitment 1 (Amer1), endogenous (protein, UniProt Q5JTC6 1-1135)
chain: METQKDEAAQAKGAAASGSTREQTAEKGAKNKAAEATEGPTSEPSSSGPGRLKKTAMKLFGGKKGICTLPSFFGGGRSKGSGKGSSKKGLSKSKTHDGLSEAAHGPEDVVSEGTGFSLPLPELPCQFPSSQSAHGALETGSRCKTSVAGATEKAVAEKFPSMPKPKKGLKGFFSSIRRHRKSKVTGAEQSEPGAKGPERVRARPHEHVSSAPQVPCFEETFQAPRKENANPQDAPGPKVSPTPEPSPPATEKMACKDPEKPMEACASAHVQPKPAPEASSLEEPHSPETGEKVVAGEVNPPNGPVGDPLSLLFGDVTSLKSFDSLTGCGDIIAEQDMDSMTDSMASGGQRANRDGTKRSSCLVTYQGGGEEMALPDDDDEEEEEEEEVELEEEEEEVKEEEEDDDLEYLWETAQMYPRPNMNLGYHPTTSPGHHGYMLLDPVRSYPGLAPGELLTPQSDQQESAPNSDEGYYDSTTPGFEDDSGEALGLVRRDCLPRDSYSGDALYEFYEPDDSLENSPPGDDCLYDLHGRSSEMFDPFLNFEPFLSSRPPGAMETEEERLVTIQKQLLYWELRREQLEAQEARAREAHAREAHAREAYTREAYGREAYAREAHTWEAHGREARTREAQAREVRCRETQVRETQARQEKPVLEYQMRPLGPSVMGLAAGVSGTSQISHRGITSAFPTTASSEPDWRDFRPLEKRYEGTCSKKDQSTCLMQLFQSDAMFEPDMQEANFGGSPRRAYPTYSPPEDPEEEEVEKEGNATVSFSQALVEFTSNGNLFSSMSCSSDSDSSFTQNLPELPPMVTFDIADVERDGEGKCEENPEFHNDEDLAASLEAFELGYYHKHAFNNYHSRFYQGLPWGVSSLPRYLGLPGLHPRPPPAAMALNRRSRSLDTAETLEMELSNSHLVQGYLESDELQAQQEDSDEEDEEEEEGEWSRDSPLSLYTEPPGAYDWPAWAPCPLPVGPGPAWISPNQLDRPSSQSPYRQATCCIPPMTMSISLSVPESRAPGESGPQLARPSHLHLPMGPCYNLQPQASQSMRARPRDVLLPVDEPSCSSSSGGFSPSPLPQAKPVGITHGIPQLPRVRPEHPQPQPTHYGPSSLDLSKERAEQGASLATSYSSTAMNGNLAK
